Reference: the supplement of paper PMC10849652
The list shows a part of the results.

Chains of the proteins cited; added tags and fusions are not shown. Lines headed by an entry give the natural chain unless they say otherwise; changes in a name come on top.
UniProt Q9HB90, whole entry, looked up: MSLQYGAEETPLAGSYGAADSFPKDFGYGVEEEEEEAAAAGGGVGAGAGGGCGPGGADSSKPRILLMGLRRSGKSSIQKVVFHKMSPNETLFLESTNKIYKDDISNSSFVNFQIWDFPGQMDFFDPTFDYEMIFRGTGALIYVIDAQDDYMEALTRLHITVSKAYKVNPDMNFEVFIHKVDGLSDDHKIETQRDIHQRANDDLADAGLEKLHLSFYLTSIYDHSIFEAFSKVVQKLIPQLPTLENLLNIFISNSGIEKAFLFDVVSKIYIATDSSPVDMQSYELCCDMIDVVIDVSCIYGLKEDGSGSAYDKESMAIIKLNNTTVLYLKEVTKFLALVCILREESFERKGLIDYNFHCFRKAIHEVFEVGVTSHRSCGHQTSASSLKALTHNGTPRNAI
UniProt Q5VZM2, whole entry, looked up: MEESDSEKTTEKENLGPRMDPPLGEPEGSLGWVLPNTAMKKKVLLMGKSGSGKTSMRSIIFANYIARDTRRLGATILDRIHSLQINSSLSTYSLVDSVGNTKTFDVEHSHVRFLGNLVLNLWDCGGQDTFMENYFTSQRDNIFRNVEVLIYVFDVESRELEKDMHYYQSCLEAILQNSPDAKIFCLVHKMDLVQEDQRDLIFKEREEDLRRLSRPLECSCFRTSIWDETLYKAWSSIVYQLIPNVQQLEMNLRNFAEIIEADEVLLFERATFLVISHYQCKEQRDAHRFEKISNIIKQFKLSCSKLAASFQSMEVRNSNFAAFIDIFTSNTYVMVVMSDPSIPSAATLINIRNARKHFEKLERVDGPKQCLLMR
UniProt P23921: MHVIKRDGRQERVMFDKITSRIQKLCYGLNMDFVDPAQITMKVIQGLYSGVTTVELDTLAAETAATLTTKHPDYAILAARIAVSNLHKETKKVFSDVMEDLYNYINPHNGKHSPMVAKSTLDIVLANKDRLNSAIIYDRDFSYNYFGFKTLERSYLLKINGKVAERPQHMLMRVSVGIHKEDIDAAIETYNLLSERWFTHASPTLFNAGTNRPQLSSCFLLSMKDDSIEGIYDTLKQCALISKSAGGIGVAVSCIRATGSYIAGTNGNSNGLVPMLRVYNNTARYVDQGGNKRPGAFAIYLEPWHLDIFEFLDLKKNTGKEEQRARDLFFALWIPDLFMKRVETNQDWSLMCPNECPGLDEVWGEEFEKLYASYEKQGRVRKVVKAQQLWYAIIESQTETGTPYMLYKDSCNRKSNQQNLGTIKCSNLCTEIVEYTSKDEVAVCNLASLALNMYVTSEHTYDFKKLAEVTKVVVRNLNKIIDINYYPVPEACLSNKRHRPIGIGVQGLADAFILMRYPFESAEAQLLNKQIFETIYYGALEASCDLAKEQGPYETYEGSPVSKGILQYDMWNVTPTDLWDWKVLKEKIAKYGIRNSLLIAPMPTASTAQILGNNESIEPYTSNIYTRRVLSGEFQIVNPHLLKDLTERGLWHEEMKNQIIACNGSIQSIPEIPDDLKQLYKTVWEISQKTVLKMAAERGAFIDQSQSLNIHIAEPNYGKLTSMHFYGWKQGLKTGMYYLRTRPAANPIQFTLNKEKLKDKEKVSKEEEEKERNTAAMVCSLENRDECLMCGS
UniProt Q8IZ73: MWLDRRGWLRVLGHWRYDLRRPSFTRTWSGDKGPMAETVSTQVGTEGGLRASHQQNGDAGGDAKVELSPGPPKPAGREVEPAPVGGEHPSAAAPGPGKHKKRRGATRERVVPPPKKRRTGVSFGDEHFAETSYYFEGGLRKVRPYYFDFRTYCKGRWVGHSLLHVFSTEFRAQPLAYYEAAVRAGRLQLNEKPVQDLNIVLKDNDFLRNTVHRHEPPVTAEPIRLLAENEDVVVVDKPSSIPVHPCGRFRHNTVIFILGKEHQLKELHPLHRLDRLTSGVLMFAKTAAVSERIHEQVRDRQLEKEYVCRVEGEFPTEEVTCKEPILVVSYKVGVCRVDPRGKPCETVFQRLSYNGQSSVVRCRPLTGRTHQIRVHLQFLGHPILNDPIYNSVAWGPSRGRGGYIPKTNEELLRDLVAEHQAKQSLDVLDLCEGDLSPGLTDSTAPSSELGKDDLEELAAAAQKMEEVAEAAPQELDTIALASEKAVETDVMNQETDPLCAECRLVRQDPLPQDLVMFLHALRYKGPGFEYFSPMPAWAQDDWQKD
UniProt P35244: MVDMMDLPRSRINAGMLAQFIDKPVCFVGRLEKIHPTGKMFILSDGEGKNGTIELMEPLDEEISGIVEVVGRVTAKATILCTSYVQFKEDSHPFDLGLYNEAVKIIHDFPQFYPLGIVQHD
UniProt Q96AT9: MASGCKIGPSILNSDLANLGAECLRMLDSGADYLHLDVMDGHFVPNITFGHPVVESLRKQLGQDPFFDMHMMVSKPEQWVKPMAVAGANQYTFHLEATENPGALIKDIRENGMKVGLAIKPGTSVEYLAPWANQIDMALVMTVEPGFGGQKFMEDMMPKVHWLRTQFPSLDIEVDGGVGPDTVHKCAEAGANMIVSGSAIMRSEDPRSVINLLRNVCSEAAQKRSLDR
UniProt Q99942: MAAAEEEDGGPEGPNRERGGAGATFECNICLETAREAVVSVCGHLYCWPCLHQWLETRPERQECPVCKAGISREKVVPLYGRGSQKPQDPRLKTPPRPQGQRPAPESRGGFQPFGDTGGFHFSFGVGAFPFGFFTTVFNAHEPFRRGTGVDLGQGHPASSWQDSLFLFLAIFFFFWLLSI
UniProt P62070: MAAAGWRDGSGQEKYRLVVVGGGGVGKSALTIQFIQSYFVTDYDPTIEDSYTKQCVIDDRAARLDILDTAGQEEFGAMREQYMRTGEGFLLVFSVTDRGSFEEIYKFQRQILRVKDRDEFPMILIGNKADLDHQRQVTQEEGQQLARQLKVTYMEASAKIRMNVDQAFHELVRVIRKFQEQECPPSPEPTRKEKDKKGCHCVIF
UniProt Q8N122, whole entry, looked up: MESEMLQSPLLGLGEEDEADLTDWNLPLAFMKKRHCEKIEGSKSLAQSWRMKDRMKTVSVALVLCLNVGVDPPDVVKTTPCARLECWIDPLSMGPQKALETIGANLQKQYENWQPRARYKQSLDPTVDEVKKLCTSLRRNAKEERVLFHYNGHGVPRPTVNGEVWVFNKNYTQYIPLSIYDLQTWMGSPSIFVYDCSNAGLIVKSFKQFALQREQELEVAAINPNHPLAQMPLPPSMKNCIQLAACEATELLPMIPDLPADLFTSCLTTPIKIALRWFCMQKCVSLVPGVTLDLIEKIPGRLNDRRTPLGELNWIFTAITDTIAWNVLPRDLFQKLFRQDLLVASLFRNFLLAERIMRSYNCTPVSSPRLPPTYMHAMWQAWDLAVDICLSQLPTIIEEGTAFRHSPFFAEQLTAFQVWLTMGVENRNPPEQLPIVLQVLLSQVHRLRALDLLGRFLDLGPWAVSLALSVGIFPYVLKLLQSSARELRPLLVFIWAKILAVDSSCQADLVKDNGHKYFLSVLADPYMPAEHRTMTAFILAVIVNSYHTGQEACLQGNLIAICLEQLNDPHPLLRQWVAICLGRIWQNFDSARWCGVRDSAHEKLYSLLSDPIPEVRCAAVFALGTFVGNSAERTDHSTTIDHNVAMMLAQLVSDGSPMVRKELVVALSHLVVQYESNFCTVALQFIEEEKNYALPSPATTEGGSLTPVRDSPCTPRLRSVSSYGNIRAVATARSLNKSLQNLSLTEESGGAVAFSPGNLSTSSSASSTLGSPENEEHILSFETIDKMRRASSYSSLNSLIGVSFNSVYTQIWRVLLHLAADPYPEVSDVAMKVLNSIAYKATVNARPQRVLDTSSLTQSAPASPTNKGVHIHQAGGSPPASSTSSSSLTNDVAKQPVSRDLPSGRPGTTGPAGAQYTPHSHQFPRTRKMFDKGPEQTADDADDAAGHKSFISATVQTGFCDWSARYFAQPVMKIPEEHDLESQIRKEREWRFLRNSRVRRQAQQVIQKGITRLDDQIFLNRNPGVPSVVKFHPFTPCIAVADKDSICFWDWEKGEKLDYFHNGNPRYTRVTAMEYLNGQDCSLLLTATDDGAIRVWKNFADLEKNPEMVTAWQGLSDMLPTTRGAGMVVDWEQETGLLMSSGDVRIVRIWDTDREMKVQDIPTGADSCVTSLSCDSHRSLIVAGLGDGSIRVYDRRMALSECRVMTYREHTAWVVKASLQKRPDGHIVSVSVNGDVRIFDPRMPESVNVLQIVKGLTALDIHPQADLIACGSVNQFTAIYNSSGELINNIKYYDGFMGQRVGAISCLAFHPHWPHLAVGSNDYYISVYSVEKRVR
UniProt Q01974, whole entry, looked up: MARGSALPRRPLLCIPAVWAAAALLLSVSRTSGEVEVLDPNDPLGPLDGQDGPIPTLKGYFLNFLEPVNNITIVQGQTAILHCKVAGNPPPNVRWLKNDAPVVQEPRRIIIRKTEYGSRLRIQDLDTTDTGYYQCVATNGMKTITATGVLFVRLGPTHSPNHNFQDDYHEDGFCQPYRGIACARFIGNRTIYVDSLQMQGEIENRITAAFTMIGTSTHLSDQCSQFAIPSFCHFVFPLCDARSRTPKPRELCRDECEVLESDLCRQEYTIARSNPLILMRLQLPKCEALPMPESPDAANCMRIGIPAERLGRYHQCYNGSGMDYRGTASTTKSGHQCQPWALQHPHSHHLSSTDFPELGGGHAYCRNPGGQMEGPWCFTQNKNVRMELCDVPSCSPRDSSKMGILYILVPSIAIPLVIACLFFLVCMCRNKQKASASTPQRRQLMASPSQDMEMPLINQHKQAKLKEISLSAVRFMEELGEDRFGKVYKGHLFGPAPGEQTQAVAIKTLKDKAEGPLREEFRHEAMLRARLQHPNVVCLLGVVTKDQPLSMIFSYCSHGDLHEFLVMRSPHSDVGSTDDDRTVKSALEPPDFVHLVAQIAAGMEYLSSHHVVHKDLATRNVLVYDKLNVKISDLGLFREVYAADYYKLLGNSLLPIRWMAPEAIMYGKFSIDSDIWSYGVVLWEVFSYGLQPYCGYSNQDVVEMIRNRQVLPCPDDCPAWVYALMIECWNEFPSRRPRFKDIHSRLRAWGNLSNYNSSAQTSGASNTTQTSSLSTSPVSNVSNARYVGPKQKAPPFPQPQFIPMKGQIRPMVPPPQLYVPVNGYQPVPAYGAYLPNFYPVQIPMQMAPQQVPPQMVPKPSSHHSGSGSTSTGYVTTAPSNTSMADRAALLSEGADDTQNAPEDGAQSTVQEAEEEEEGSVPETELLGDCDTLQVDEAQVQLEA

Tests used:
Assay in all cases: log2 fold change, soluble protein after heating vs DMSO (PISA); higher = thermal stabilisation; K562 cells, 10 uM, 30 min; active = over 0.2 and 3.5 SD of the protein, either way, in both replicates (recomputed)
[1] = compound: CC[C@@H]1C(=O)N(C)c2cnc(Nc3ccc(C(=O)NC4CCN(C)CC4)cc3OC)nc2N1C1CCCC1
How it was run: (§1)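 Thermal stability values are relative to control samples and come from duplicates. They are expressed as log2 fold changes. For measurement, K562 cells (2×10^6 cells/mL) received 10 μM compound for 30 min, and aliquots were heated for 3 min over 48°C-58°C, pooled, and extracted at 4°C in PBS with 0.5% NP-40. Soluble protein, the supernatant after 21,000xg for 90 min, was quantified by TMTpro 16plex LC-MS/MS with equalised channel sums.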

volasertib = compound: CC[C@@H]1C(=O)N(C)c2cnc(Nc3ccc(C(=O)N[C@H]4CC[C@H](N5CCN(CC6CC6)CC5)CC4)cc3OC)nc2N1C(C)C [volasertib]
How it was run: as §1

[2] = compound: CC[C@H](C)N1C=C(C2=C(C=C(C=C21)C3=CN=C(C=C3)N4CCNCC4)C(=O)NCC5=C(C=C(NC5=O)C)C)C
How it was run: as §1

epoxomicin = compound: CC[C@H](C)[C@@H](C(=O)N[C@@H]([C@@H](C)O)C(=O)N[C@@H](CC(C)C)C(=O)[C@]1(CO1)C)NC(=O)[C@H]([C@@H](C)CC)N(C)C(=O)C [epoxomicin]
How it was run: as §1

[3] = compound: CCn1c(C(=O)N(C2CC2)C2CC2)cc2c3c(ncn3C)c(Nc3cc(C)n(C)n3)nc21
How it was run: as §1

[4] = compound: CCn1cc(-c2ccnc3[nH]c(-c4cccc(CN(C)C)c4)cc23)c(-c2ccc(NC(=O)N(C)C)cc2)n1
How it was run: as §1

[5] = compound: CN(C)CC(=O)Nc1ccc2[nH]c(=O)c3ccccc3c2c1
How it was run: as §1

rosiglitazone = compound: CN(CCOC1=CC=C(C=C1)C[C@H]2C(=O)NC(=O)S2)C3=CC=CC=N3 (racemic) [rosiglitazone]
How it was run: as §1

[6] = compound: CN1C2=C(C3=C1C(=O)N(N=C3)CC4=CC(=CC=C4)N)SC(=C2)S(=O)C
How it was run: as §1

[7] = compound: CN1CCC(CNc2ccc3ncc(-c4cccc(OC(F)(F)F)c4)n3n2)CC1
How it was run: as §1

saracatinib = compound: CN1CCN(CCOc2cc(OC3CCOCC3)c3c(Nc4c(Cl)ccc5c4OCO5)ncnc3c2)CC1 [saracatinib]
How it was run: as §1

sotrastaurin = compound: CN1CCN(c2nc(C3=C(c4c[nH]c5ccccc45)C(=O)NC3=O)c3ccccc3n2)CC1 [sotrastaurin]
How it was run: as §1

alvocidib = compound: CN1CC[C@H](c2c(O)cc(O)c3c(=O)cc(-c4ccccc4Cl)oc23)[C@H](O)C1 [alvocidib]
How it was run: as §1

Tubastatin A = compound: CN1CCc2c(c3ccccc3n2Cc2ccc(C(=O)NO)cc2)C1 [Tubastatin A]
How it was run: as §1

[8] = compound: CNC(=O)C1=CC=CC=C1NC2=NC(=NC=C2Cl)NC3=C(C=C(C=C3)N4CCOCC4)OC
How it was run: as §1

defactinib = compound: CNC(=O)c1ccc(Nc2ncc(C(F)(F)F)c(NCc3nccnc3N(C)S(C)(=O)=O)n2)cc1 [defactinib]
How it was run: as §1

rucaparib = compound: CNCc1ccc(-c2[nH]c3cc(F)cc4c3c2CCNC4=O)cc1 [rucaparib]
How it was run: as §1

[9] = compound: CNc1nc(-c2ccc3c(N)n[nH]c3c2)cc(N2C[C@@H](C(=O)NC3CCCCC3)CC[C@H]2C)n1
How it was run: as §1

encorafenib = compound: COC(=O)N[C@@H](C)CNc1nccc(-c2cn(C(C)C)nc2-c2cc(Cl)cc(NS(C)(=O)=O)c2F)n1 [encorafenib]
How it was run: as §1

[10] = compound: COC(=O)[C@H](CCSC)NC(=O)C1=C(C=C(C=C1)NC[C@H](CS)N)C2=CC=CC=C2
How it was run: as §1

Measured: log2 fold change

RPL21 (UniProt P46778)
inactive: [1] 0.311 | volasertib 0.788 | [2] -0.002 | epoxomicin -0.732 | [3] 0.032 | [4] 0.363 | [5] -0.305 | rosiglitazone -0.262 | [6] 0.493 | [7] 0.4 | saracatinib -0.165 | sotrastaurin -0.009 | alvocidib 0.533 | Tubastatin A 0.242 | [8] 0.029 | defactinib 0.685 | rucaparib 0.487 | [9] 0.186 | encorafenib 0.222 | [10] 0.006

RPS9 (UniProt P46781)
inactive: [1] 0.203 | volasertib 0.339 | [2] 0.02 | epoxomicin -0.24 | [4] 0.088 | [5] -0.095 | [6] 0.174 | [7] 0.146 | saracatinib -0.044 | sotrastaurin -0.015 | Tubastatin A 0.119 | [8] 0.083 | defactinib 0.226 | rucaparib 0.108 | [9] 0.095 | encorafenib 0.118 | [10] -0.027

RPS16 (UniProt P62249)
inactive: [1] 0.125 | volasertib 0.388 | [2] 0.044 | epoxomicin -0.118 | [4] 0.124 | [5] -0.085 | [6] 0.112 | [7] 0.1 | saracatinib -0.085 | sotrastaurin 0.004 | Tubastatin A 0.05 | [8] 0.108 | defactinib 0.185 | rucaparib 0.126 | [9] 0.056 | encorafenib 0.033 | [10] 0.004

RPL29 (UniProt P47914)
inactive: [1] 0.107 | volasertib 0.526 | [2] -0.042 | epoxomicin -0.692 | [3] 0.076 | [4] 0.279 | [5] -0.187 | rosiglitazone -0.274 | [6] 0.408 | [7] 0.331 | saracatinib -0.062 | sotrastaurin -0.077 | alvocidib 0.316 | Tubastatin A 0.148 | [8] -0.04 | defactinib 0.431 | rucaparib 0.46 | [9] 0.17 | encorafenib 0.167 | [10] -0.054

RRAGC (UniProt Q9HB90)
inactive: [1] -0.009 | volasertib -0.003 | [2] -0.051 | epoxomicin -0.045 | [4] 0 | [5] -0.024 | [6] -0.067 | [7] -0.177 | saracatinib 0.023 | sotrastaurin 0.006 | Tubastatin A -0.025 | [8] -0.014 | defactinib -0.005 | rucaparib -0.058 | [9] -0.063 | encorafenib 0.036 | [10] -0.005

RRAGB (UniProt Q5VZM2)
inactive: [1] 0 | volasertib 0.011 | [2] -0.017 | epoxomicin 0.047 | [4] -0.041 | [5] -0.027 | [6] -0.022 | [7] -0.191 | saracatinib 0.076 | sotrastaurin 0.028 | Tubastatin A -0.03 | [8] -0.01 | defactinib -0.075 | rucaparib -0.009 | [9] -0.009 | encorafenib 0.06 | [10] 0.084

RRM1 (UniProt P23921)
inactive: [1] 0.031 | volasertib 0.051 | [2] -0.029 | epoxomicin 0.036 | [3] -0.01 | [4] -0.114 | [5] -0.014 | rosiglitazone 0.016 | [6] -0.049 | [7] -0.045 | saracatinib 0.041 | sotrastaurin 0.033 | alvocidib -0.012 | Tubastatin A -0.035 | [8] -0.069 | defactinib -0.013 | rucaparib -0.013 | [9] -0.02 | encorafenib -0.007 | [10] -0.006

RPS3 (UniProt P23396)
inactive: [1] 0.147 | volasertib 0.34 | [2] 0.011 | epoxomicin -0.125 | [4] 0.125 | [5] -0.071 | [6] 0.085 | [7] 0.045 | saracatinib -0.03 | sotrastaurin 0.031 | Tubastatin A 0.094 | [8] 0.082 | defactinib 0.208 | rucaparib 0.097 | [9] 0.04 | encorafenib 0.045 | [10] 0.002

RPUSD2 (UniProt Q8IZ73)
inactive: [1] 0.039 | volasertib 0.003 | [2] 0.01 | epoxomicin -0.007 | [3] -0.017 | [4] -0.037 | [5] -0.007 | rosiglitazone 0.007 | [6] -0.012 | [7] 0.007 | saracatinib -0.04 | sotrastaurin -0.002 | alvocidib -0.001 | Tubastatin A 0.028 | [8] 0.002 | defactinib 0.017 | rucaparib 0.006 | [9] -0.034 | encorafenib -0.014 | [10] 0.015

Reprinted from above (two entries):
RRM1 (UniProt P23921)
inactive: [1] 0.031 | volasertib 0.051 | [2] -0.029 | epoxomicin 0.036 | [3] -0.01 | [4] -0.114 | [5] -0.014 | rosiglitazone 0.016 | [6] -0.049 | [7] -0.045 | saracatinib 0.041 | sotrastaurin 0.033 | alvocidib -0.012 | Tubastatin A -0.035 | [8] -0.069 | defactinib -0.013 | rucaparib -0.013 | [9] -0.02 | encorafenib -0.007 | [10] -0.006

RPS3 (UniProt P23396)
inactive: [1] 0.147 | volasertib 0.34 | [2] 0.011 | epoxomicin -0.125 | [4] 0.125 | [5] -0.071 | [6] 0.085 | [7] 0.045 | saracatinib -0.03 | sotrastaurin 0.031 | Tubastatin A 0.094 | [8] 0.082 | defactinib 0.208 | rucaparib 0.097 | [9] 0.04 | encorafenib 0.045 | [10] 0.002

(list continues)

RPA3 (UniProt P35244)
inactive: [1] -0.006 | volasertib -0.056 | [2] -0.002 | epoxomicin 0.06 | [4] -0.044 | [5] 0.163 | [6] -0.054 | [7] 0.039 | saracatinib 0.015 | sotrastaurin -0.014 | Tubastatin A 0.022 | [8] 0.181 | defactinib -0.054 | rucaparib -0.048 | [9] 0.015 | encorafenib 0.06 | [10] 0.014

RPS12 (UniProt P25398)
inactive: [1] 0.108 | volasertib 0.219 | [2] 0.038 | epoxomicin -0.021 | [4] 0.063 | [5] -0.028 | [6] 0.064 | [7] 0.079 | saracatinib -0.014 | sotrastaurin -0.023 | Tubastatin A 0.017 | [8] 0.049 | defactinib 0.092 | rucaparib 0.12 | [9] -0.008 | encorafenib 0.02 | [10] 0.015

RPE (UniProt Q96AT9)
inactive: [1] 0.04 | volasertib 0.022 | [2] 0.115 | epoxomicin 0.001 | [3] -0.062 | [5] -0.013 | rosiglitazone -0.077 | [6] 0.02 | saracatinib 0.029 | alvocidib 0.07 | Tubastatin A 0.01 | [8] 0.022 | defactinib -0.099 | rucaparib 0.005 | [9] -0.053 | encorafenib -0.012 | [10] -0.052

RPS5 (UniProt P46782)
inactive: [1] 0.103 | volasertib 0.337 | [2] 0.065 | epoxomicin -0.079 | [4] 0.059 | [5] -0.036 | [6] 0.089 | [7] 0.044 | saracatinib -0.038 | sotrastaurin 0.018 | Tubastatin A 0.084 | [8] 0.065 | defactinib 0.121 | rucaparib 0.096 | [9] 0.103 | encorafenib 0.054 | [10] -0.026

RNF5 (UniProt Q99942)
inactive: [1] -0.198 | volasertib -0.062 | [2] 0.006 | epoxomicin 0.061 | [3] -0.039 | [4] 0.073 | [5] 0.007 | rosiglitazone 0 | [7] -0.29 | sotrastaurin -0.115 | alvocidib -0.019 | Tubastatin A -0.163 | [8] -0.036 | defactinib -0.007 | rucaparib 0.006 | encorafenib 0.053 | [10] 0.012

RRAS2 isoform 4 (UniProt P62070)
inactive: [1] 0.061 | volasertib 0.124 | [2] -0.048 | epoxomicin 0.063 | [4] 0.014 | [5] -0.013 | [6] -0.064 | saracatinib 0.069 | sotrastaurin 0.075 | Tubastatin A 0.014 | [8] -0.001 | defactinib -0.016 | rucaparib 0 | [9] 0.05 | encorafenib -0.011 | [10] 0.004
active: [7] 0.207

RPL14 (UniProt P50914)
inactive: [1] 0.275 | volasertib 0.795 | [2] 0.007 | epoxomicin -0.713 | [3] 0.062 | [4] 0.284 | [5] -0.333 | rosiglitazone -0.336 | [6] 0.544 | [7] 0.549 | saracatinib -0.159 | sotrastaurin -0.062 | alvocidib 0.433 | Tubastatin A 0.251 | [8] 0.094 | defactinib 0.625 | rucaparib 0.545 | [9] 0.271 | encorafenib 0.272 | [10] -0.066

RPTOR (UniProt Q8N122)
inactive: [1] -0.116 | [2] 0.064 | epoxomicin 0.034 | [4] -0.08 | [5] 0.03 | [6] -0.037 | [7] -0.197 | saracatinib -0.005 | sotrastaurin -0.01 | Tubastatin A 0.027 | [8] -0.044 | defactinib -0.074 | rucaparib -0.068 | [9] 0.033 | encorafenib 0.047 | [10] -0.039
active: volasertib -0.237

ROR2 (UniProt Q01974)
inactive: [1] -0.107 | volasertib -0.123 | [2] 0.129 | epoxomicin 0.035 | [4] -0.015 | [5] -0.01 | [6] -0.069 | [7] -0.089 | saracatinib 0.034 | sotrastaurin -0.071 | Tubastatin A -0.025 | [8] -0.023 | defactinib -0.107 | rucaparib -0.012 | [9] 0.084 | encorafenib 0.03 | [10] -0.121
